Experimental findings from US20240043838A1 are described below.

By UniProt entry, the sequences of proteins in these tests, tags left out. Where a name states a change or a piece, a line headed by the entry shows the natural chain unless it says otherwise. Chains listed by the source or under a name are the forms on record and can include a tag or linker. Residues count along the entry.
UniProt Q8K212: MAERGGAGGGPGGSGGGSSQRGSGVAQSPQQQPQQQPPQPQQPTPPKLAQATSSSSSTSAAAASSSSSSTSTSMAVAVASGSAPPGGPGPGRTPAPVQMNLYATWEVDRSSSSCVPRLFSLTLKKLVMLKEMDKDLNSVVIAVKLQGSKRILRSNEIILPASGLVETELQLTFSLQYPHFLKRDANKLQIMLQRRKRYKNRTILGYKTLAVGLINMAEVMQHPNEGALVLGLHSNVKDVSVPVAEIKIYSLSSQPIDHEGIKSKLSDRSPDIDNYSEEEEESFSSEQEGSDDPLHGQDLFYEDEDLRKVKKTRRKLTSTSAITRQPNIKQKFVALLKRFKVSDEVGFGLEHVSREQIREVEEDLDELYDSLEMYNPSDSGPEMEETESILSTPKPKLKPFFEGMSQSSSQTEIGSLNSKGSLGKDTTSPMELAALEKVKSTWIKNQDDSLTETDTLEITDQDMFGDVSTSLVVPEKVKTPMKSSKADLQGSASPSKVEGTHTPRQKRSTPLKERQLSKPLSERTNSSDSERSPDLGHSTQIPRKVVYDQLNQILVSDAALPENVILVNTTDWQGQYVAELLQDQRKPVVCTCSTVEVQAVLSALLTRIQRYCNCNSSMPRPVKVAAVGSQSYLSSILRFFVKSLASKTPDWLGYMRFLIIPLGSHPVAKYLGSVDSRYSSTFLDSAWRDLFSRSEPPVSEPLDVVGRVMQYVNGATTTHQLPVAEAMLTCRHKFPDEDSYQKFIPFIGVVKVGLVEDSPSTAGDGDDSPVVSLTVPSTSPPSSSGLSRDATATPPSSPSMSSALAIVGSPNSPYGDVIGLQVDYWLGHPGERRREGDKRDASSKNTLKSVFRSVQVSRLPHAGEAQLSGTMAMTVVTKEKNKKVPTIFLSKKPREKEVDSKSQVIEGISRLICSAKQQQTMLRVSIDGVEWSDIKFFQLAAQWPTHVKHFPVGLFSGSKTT
FLAG-tagged Pacs1 (amino acids 171-961): residues 171-961 of Q8K212

Results are given in words; binding and its absence hold for the method and conditions named. In cells and extracts the contact can be indirect. Some entries that bind do so weakly or less than the wild type. Sequences can lack the tags named with a protein.

Test [1] deals with T1, FLAG-Wdr37 (mouse) (UniProt Q8CBE3).
T1 sequence (looked up): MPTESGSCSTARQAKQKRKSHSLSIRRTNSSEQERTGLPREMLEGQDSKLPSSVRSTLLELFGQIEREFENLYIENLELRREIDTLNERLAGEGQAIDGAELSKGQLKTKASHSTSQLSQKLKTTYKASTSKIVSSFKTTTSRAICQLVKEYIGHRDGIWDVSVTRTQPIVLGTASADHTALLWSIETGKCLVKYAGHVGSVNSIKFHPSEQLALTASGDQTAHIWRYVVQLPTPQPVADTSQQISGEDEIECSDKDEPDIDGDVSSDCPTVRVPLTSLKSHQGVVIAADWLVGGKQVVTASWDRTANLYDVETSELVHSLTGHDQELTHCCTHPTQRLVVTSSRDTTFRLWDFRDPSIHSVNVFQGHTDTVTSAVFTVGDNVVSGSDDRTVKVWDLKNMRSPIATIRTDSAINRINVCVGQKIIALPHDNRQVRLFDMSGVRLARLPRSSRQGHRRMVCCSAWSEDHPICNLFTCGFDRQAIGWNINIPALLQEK
The experiment in a line: reciprocal co-immunoprecipitation on anti-FLAG resin, co-transfected HEK 293T cells, western blot. Background: Immunoblotting shows a protein as a band on a membrane.

Test [2] concerns the target T1, FLAG-Wdr37 (mouse). Nature of the test: co-immunoprecipitation, co-transfected 293T cells.
For test [3], the target named is FLAG-tagged Pacs1 (amino acids 171-961) (mouse) (UniProt Q8K212). The experiment in a line: co-immunoprecipitation, co-transfected 293T cells.
Test [4] shares this target. Nature of the test: co-immunoprecipitation on anti-FLAG resin, co-transfected HEK 293T cells, western blot.

With HA-Pacs1 (from UniProt Q8K212 114-961), the binding entry in test [1] and in test [2] was “binds” throughout.

B1: HA-tagged full-length Wdr37 (protein, mouse, UniProt Q8CBE3 1-496, looked up, not shown: small tags and cut ends)
chain: T1 sequence (looked up)
On to B1, for which the binding result in test [3] and in test [4] was “binds” throughout.
